Reference: ChEMBL document CHEMBL5465560, “Selectivity Literature for EUbOPEN Chemogenomic Library” (2024)

Protein sequences, listed by entry. Tags and fused reporters are not part of them. Lines headed by an entry give the natural chain unless they say otherwise; changes in a name come on top.
UniProt Q8N568: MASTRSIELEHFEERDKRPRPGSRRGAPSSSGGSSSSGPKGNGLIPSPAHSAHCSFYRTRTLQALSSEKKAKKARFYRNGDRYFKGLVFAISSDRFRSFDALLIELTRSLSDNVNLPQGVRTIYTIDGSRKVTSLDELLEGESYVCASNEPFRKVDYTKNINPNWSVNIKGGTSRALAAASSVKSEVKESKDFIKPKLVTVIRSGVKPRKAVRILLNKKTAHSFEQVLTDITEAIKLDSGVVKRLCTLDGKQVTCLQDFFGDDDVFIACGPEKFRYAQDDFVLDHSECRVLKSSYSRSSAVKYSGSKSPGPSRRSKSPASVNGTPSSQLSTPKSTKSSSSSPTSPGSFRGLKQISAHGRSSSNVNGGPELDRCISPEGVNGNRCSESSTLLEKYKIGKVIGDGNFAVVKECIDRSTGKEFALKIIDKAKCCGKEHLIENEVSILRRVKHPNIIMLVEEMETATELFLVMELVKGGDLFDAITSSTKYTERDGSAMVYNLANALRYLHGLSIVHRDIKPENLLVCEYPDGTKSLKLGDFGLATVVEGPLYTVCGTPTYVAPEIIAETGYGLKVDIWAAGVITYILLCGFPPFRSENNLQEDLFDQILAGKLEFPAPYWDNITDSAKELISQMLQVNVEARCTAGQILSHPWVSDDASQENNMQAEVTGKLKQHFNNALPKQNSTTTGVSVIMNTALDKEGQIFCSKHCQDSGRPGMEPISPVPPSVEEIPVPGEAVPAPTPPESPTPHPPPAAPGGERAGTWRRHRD
UniProt O14965: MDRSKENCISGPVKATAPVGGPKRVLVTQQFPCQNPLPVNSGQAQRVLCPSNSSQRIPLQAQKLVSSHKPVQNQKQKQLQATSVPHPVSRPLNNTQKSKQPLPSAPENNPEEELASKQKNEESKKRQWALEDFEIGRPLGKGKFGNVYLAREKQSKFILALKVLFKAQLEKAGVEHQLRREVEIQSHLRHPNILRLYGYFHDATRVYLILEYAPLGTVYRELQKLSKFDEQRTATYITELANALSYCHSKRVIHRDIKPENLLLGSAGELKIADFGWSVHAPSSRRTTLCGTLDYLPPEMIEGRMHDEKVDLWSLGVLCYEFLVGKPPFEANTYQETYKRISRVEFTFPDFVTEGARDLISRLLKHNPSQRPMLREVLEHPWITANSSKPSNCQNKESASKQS
UniProt O14730: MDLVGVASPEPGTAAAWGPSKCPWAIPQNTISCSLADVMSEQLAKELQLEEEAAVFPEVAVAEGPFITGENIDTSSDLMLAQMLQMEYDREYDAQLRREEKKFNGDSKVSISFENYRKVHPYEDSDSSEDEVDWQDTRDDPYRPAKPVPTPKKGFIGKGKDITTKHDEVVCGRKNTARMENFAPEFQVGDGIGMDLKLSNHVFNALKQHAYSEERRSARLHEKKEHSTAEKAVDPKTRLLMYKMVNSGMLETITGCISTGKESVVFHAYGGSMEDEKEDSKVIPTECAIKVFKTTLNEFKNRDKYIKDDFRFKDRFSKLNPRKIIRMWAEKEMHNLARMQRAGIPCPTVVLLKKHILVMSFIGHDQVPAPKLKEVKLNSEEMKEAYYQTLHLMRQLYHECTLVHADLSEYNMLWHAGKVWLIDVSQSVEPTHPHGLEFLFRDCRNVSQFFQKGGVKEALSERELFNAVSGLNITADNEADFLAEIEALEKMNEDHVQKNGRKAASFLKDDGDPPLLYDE
UniProt P07947, whole entry, looked up: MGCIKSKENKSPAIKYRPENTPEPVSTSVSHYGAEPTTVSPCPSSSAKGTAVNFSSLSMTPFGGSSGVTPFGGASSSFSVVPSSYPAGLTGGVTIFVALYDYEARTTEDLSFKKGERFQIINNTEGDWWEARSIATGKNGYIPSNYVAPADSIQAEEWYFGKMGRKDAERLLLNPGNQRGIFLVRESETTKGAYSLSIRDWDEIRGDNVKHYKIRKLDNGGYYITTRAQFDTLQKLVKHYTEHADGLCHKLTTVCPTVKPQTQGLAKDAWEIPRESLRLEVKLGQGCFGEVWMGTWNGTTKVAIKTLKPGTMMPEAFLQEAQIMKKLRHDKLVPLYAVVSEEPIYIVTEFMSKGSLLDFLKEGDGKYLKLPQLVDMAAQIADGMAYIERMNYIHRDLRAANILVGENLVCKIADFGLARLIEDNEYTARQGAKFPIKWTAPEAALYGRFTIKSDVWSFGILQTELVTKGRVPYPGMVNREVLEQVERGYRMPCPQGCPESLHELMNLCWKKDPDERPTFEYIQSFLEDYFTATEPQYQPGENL
UniProt O43283: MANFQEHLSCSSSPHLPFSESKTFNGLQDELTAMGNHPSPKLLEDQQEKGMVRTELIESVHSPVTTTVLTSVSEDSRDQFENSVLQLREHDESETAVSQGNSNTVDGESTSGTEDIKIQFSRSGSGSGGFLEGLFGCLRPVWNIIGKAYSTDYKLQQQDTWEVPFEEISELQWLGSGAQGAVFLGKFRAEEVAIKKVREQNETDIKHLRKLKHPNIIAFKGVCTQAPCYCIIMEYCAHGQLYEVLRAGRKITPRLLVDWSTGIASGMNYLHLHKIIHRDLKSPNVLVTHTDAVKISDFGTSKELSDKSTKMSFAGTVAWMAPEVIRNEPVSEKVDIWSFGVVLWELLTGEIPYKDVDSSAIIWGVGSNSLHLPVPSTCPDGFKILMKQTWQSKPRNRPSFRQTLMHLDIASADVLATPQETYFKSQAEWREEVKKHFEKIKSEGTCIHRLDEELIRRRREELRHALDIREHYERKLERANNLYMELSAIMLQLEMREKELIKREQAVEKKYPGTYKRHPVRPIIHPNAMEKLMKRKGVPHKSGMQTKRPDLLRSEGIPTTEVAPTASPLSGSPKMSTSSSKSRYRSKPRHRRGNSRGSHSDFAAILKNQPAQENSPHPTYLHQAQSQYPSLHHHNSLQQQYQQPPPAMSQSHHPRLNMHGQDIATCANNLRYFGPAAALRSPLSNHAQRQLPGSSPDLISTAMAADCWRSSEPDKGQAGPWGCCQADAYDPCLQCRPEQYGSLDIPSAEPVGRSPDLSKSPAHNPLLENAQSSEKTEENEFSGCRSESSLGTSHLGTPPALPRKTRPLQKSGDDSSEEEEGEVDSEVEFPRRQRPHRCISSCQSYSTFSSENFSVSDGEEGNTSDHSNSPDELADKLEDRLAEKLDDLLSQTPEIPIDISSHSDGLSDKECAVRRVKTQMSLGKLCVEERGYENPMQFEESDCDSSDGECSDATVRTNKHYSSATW
UniProt Q8TBX8: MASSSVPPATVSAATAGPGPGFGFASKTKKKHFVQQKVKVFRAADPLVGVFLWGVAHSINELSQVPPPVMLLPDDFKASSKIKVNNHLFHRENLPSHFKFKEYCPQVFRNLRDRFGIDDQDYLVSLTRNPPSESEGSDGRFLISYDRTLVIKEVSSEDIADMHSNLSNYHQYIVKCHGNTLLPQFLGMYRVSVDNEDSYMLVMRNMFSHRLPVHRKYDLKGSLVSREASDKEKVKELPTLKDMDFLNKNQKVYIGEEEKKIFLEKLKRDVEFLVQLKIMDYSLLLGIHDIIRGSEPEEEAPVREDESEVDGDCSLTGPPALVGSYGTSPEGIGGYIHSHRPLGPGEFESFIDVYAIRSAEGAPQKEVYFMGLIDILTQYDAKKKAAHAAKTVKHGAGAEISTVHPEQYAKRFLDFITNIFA
UniProt P29376: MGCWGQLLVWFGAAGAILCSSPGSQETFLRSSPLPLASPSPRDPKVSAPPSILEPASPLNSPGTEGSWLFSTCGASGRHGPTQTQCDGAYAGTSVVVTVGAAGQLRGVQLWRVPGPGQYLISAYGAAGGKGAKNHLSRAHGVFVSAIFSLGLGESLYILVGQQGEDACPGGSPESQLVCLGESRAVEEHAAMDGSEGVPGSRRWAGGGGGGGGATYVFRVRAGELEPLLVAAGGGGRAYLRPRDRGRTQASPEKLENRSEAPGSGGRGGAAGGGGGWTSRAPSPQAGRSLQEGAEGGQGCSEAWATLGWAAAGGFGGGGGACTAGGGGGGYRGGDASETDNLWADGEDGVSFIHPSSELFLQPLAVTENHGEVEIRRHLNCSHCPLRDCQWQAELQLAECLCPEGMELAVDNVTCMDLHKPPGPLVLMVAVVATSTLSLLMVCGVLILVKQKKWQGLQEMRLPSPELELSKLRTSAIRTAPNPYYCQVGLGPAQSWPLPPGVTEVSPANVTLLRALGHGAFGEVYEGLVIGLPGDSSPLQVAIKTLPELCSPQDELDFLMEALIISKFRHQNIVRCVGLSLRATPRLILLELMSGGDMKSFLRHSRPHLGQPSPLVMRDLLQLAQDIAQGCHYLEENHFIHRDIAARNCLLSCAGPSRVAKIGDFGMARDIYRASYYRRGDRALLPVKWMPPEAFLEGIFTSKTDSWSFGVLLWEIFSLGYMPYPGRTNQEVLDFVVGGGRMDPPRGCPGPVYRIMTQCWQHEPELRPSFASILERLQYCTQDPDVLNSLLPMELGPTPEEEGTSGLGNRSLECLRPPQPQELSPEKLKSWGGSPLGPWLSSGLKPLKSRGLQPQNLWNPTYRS
UniProt O43293: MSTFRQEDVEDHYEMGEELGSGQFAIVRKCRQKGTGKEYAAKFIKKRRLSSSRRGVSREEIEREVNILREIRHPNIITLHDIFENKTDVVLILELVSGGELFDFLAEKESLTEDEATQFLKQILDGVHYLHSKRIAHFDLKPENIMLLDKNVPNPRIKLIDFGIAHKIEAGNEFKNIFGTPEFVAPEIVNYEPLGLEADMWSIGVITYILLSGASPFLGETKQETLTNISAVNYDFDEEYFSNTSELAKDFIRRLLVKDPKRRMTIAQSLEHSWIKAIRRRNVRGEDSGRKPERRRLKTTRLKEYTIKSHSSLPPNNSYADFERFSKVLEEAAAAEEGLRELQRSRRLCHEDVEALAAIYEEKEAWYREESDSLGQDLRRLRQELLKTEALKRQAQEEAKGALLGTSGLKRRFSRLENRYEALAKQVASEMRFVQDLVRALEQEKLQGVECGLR
UniProt P51813: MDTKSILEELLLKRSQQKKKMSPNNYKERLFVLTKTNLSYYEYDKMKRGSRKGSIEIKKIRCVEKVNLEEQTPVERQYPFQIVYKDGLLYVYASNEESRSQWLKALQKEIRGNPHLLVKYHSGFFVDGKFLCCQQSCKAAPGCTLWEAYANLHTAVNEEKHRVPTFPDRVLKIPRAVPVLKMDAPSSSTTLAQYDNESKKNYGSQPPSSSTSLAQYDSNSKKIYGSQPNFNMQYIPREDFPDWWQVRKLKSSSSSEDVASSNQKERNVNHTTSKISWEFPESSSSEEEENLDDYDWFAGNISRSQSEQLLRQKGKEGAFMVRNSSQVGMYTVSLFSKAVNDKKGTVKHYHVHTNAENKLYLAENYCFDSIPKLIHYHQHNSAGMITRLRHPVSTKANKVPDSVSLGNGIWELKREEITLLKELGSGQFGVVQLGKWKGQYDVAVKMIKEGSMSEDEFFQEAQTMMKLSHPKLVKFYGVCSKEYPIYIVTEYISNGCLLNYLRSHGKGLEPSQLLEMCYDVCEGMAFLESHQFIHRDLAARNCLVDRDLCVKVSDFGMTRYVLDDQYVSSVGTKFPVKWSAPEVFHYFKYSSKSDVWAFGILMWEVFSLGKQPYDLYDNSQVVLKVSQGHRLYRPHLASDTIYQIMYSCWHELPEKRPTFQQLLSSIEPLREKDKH
UniProt Q13131: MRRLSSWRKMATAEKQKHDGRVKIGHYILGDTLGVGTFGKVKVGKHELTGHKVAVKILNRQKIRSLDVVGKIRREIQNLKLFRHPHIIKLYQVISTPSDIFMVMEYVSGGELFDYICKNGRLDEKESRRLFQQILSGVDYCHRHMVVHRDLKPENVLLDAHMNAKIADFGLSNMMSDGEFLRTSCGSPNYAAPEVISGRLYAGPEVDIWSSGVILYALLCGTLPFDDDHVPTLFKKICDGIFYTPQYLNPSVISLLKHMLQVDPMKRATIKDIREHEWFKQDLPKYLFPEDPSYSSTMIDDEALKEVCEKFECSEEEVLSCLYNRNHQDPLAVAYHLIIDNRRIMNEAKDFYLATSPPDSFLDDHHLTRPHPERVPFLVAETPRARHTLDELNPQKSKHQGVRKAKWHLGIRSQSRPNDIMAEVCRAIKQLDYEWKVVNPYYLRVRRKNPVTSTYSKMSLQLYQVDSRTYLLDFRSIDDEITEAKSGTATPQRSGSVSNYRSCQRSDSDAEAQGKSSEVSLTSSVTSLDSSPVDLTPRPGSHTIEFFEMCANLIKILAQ
UniProt Q9HC98: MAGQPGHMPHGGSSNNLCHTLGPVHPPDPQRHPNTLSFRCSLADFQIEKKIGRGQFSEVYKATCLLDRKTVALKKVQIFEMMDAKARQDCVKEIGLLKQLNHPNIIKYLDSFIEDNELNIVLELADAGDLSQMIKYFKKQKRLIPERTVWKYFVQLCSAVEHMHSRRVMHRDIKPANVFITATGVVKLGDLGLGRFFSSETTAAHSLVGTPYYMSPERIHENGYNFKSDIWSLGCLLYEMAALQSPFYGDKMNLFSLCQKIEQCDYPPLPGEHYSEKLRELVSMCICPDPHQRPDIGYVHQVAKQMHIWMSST

Assays:
Conditions in all cases: at 1 µM
[1] = target: TGF-beta receptor type-1 (Homo sapiens) (UniProt P36897); assay: Selectivity interaction (KinomeScan (DiscoverX)) EUB0001581a TGFBR1
[2] = target: Dual specificity protein kinase TTK (Homo sapiens) (UniProt P33981); assay: Selectivity interaction (KinomeScan (DiscoverX)) EUB0001581a TTK
[3] = target: Serine/threonine-protein kinase DCLK2 (Homo sapiens) (UniProt Q8N568); assay: Selectivity interaction (KinomeScan (DiscoverX)) EUB0001581a DCLK2
[4] = target: Aurora kinase A (Homo sapiens) (UniProt O14965); assay: Selectivity interaction (KinomeScan (DiscoverX)) EUB0001581a STK6
[5] = target: Serine/threonine-protein kinase PRP4 homolog (Homo sapiens) (UniProt Q13523); assay: Selectivity interaction (KinomeScan (DiscoverX)) EUB0001581a PRPF4B
[6] = target: Serine/threonine-protein kinase PAK 2 (Homo sapiens) (UniProt Q13177); assay: Selectivity interaction (KinomeScan (DiscoverX)) EUB0001581a PAK2
[7] = target: Cyclin-dependent kinase 14 (Homo sapiens) (UniProt O94921); assay: Selectivity interaction (KinomeScan (DiscoverX)) EUB0001581a CDK14
[8] = target: BDNF/NT-3 growth factors receptor (Homo sapiens) (UniProt Q16620); assay: Selectivity interaction (KinomeScan (DiscoverX)) EUB0001581a NTRK2
[9] = target: Serine/threonine-protein kinase 17B (Homo sapiens) (UniProt O94768); assay: Selectivity interaction (KinomeScan (DiscoverX)) EUB0001581a STK17B
[10] = target: Cyclin-dependent kinase 18 (Homo sapiens) (UniProt Q07002); assay: Selectivity interaction (KinomeScan (DiscoverX)) EUB0001581a CDK18
[11] = target: Serine/threonine-protein kinase ULK3 (Homo sapiens) (UniProt Q6PHR2); assay: Selectivity interaction (KinomeScan (DiscoverX)) EUB0001581a ULK3
[12] = target: Mitogen-activated protein kinase kinase kinase 10 (Homo sapiens) (UniProt Q02779); assay: Selectivity interaction (KinomeScan (DiscoverX)) EUB0001581a MAP3K10
[13] = target: Ephrin type-B receptor 1 (Homo sapiens) (UniProt P54762); assay: Selectivity interaction (KinomeScan (DiscoverX)) EUB0001581a EPHB1
[14] = test system: Tyrosine-protein kinase ABL1 (Homo sapiens), P00519 [F317I]; assay: (§1) Selectivity interaction (KinomeScan (DiscoverX)) EUB0001581a ABL1
[15] = test system: Receptor-type tyrosine-protein kinase FLT3 (Homo sapiens), P36888 [N841I]; assay: (§2) Selectivity interaction (KinomeScan (DiscoverX)) EUB0001581a FLT3
[16] = test system: Receptor-type tyrosine-protein kinase FLT3 (Homo sapiens), P36888 [R834Q]; assay: as §2
[17] = test system: Receptor-type tyrosine-protein kinase FLT3 (Homo sapiens), P36888 [K663Q]; assay: as §2
[18] = test system: Receptor-type tyrosine-protein kinase FLT3 (Homo sapiens), P36888 [UNDEFINED MUTATION]; assay: as §2
[19] = test system: Receptor-type tyrosine-protein kinase FLT3 (Homo sapiens), P36888 [D835Y]; assay: as §2
[20] = target: Serine/threonine-protein kinase TAO3 (Homo sapiens) (UniProt Q9H2K8); assay: Selectivity interaction (KinomeScan (DiscoverX)) EUB0001581a TAOK3
[21] = target: Serine/threonine-protein kinase RIO3 (Homo sapiens) (UniProt O14730); assay: Selectivity interaction (KinomeScan (DiscoverX)) EUB0001581a RIOK3
[22] = target: Serine/threonine-protein kinase SBK1 (Homo sapiens) (UniProt Q52WX2); assay: Selectivity interaction (KinomeScan (DiscoverX)) EUB0001581a SBK1
[23] = target: Bone morphogenetic protein receptor type-2 (Homo sapiens) (UniProt Q13873); assay: Selectivity interaction (KinomeScan (DiscoverX)) EUB0001581a BMPR2
[24] = target: Casein kinase II subunit alpha (Homo sapiens, UniProt P68400); assay: Selectivity interaction (KinomeScan (DiscoverX)) EUB0001581a CSNK2A1
[25] = target: Tyrosine-protein kinase Yes (Homo sapiens) (UniProt P07947); assay: Selectivity interaction (KinomeScan (DiscoverX)) EUB0001581a YES1
[26] = target: Serine/threonine-protein kinase B-raf (Homo sapiens) (UniProt P15056); assay: (§3) Selectivity interaction (KinomeScan (DiscoverX)) EUB0001581a BRAF
[27] = test system: Serine/threonine-protein kinase B-raf (Homo sapiens), P15056 [V600E]; assay: as §3
[28] = target: Mitogen-activated protein kinase kinase kinase 13 (Homo sapiens) (UniProt O43283); assay: Selectivity interaction (KinomeScan (DiscoverX)) EUB0001581a MAP3K13
[29] = target: Mitogen-activated protein kinase 12 (Homo sapiens) (UniProt P53778); assay: Selectivity interaction (KinomeScan (DiscoverX)) EUB0001581a MAPK12
[30] = target: Mitogen-activated protein kinase 6 (Homo sapiens) (UniProt Q16659); assay: Selectivity interaction (KinomeScan (DiscoverX)) EUB0001581a MAPK6
[31] = target: Serine/threonine-protein kinase PAK 6 (Homo sapiens) (UniProt Q9NQU5); assay: Selectivity interaction (KinomeScan (DiscoverX)) EUB0001581a PAK6
[32] = target: Phosphatidylinositol 5-phosphate 4-kinase type-2 gamma (Homo sapiens) (UniProt Q8TBX8); assay: Selectivity interaction (KinomeScan (DiscoverX)) EUB0001581a PIP4K2C
[33] = target: Leukocyte tyrosine kinase receptor (Homo sapiens, UniProt P29376); assay: Selectivity interaction (KinomeScan (DiscoverX)) EUB0001581a LTK
[34] = test system: Tyrosine-protein kinase ABL1 (Homo sapiens), P00519 [F317L]; assay: as §1
[35] = target: Death-associated protein kinase 3 (Homo sapiens) (UniProt O43293); assay: Selectivity interaction (KinomeScan (DiscoverX)) EUB0001581a DAPK3
[36] = target: Cytoplasmic tyrosine-protein kinase BMX (Homo sapiens) (UniProt P51813); assay: Selectivity interaction (KinomeScan (DiscoverX)) EUB0001581a BMX
[37] = target: 5'-AMP-activated protein kinase catalytic subunit alpha-1 (Homo sapiens, UniProt Q13131); assay: Selectivity interaction (KinomeScan (DiscoverX)) EUB0001581a PRKAA1
[38] = target: Serine/threonine-protein kinase Nek6 (Homo sapiens) (UniProt Q9HC98); assay: Selectivity interaction (KinomeScan (DiscoverX)) EUB0001581a NEK6
[39] = target: Myosin-IIIa (Homo sapiens) (UniProt Q8NEV4); assay: Selectivity interaction (KinomeScan (DiscoverX)) EUB0001581a MYO3A
[40] = target: Dual specificity mitogen-activated protein kinase kinase 6 (Homo sapiens) (UniProt P52564); assay: Selectivity interaction (KinomeScan (DiscoverX)) EUB0001581a MAP2K6

With `C[C@@H]1C[C@H](N)C[C@H](c2ccncc2NC(=O)c2ccc(F)c(-c3c(F)cccc3F)n2)C1` the % of control [1] was 100%, the % of control [2] was 100% and the % of control [3] was 100%. For the same molecule, the % of control [4] was 93%, the % of control [5] was 100% and the % of control [6] was 64%. For the same molecule, the % of control [7] was 90%, the % of control [8] was 82% and the % of control [9] was 100%. The % of control [10] was 99%, the % of control [11] was 100% and the % of control [12] was 100%. For the same molecule, the % of control [13] was 88%, the % of control [14] was 100% and the % of control [15] was 80%. The % of control [16] was 100%, the % of control [17] was 82% and the % of control [18] was 79%. For the same molecule, the % of control [19] was 38%, the % of control [20] was 40% and the % of control [21] was 100%. It also gave a % of control [22] of 100%, a % of control [23] of 100% and a % of control [24] of 77%. It also gave a % of control [25] of 100%, a % of control [26] of 90% and a % of control [27] of 99%. The % of control [28] was 98%, the % of control [29] was 100% and the % of control [30] was 100%. It also gave a % of control [31] of 97%, a % of control [32] of 100% and a % of control [33] of 88%. It also gave a % of control [34] of 100%, a % of control [35] of 97% and a % of control [36] of 100%. The % of control [37] was 93%, the % of control [38] was 100% and the % of control [39] was 100%. For the same molecule, the % of control [40] was 100%.
